Source: article PMC10713660
Results are given in words; binding and its absence hold for the method and conditions named. Binding seen in cells or lysates may run through a third protein. Some results given as binding are weak or reduced against the parent protein; the word gives no strength. Where a sequence is shown, tags or fusion partners need not be part of it.

Biological target: coiled-coil glutamate-rich protein 1 (CCER1), mouse, full length, expressed as differently tagged copies (mouse) (UniProt Q9CQL2)
Assay: co-IP; HEK293T cells transfected with Flag-CCER1, mCherry-CCER1 and GFP-CCER1 plasmids for 36-48 h; lysed in RIPA buffer (50 mM Tris-HCl pH 7.5, 150 mM NaCl, 0.05% SDS, 1 mM EDTA, 1% NP-40, 1 mM DTT, 0.5% sodium deoxycholate) and sonicated at 4 °C; IP with anti-mCherry, anti-Flag or anti-GFP antibodies overnight at 4 °C, Protein A/G beads; western blot

binding: binds
B1: coiled-coil glutamate-rich protein 1 (CCER1), mouse, full length, expressed as differently tagged copies (protein, UniProt Q9CQL2 1-403)
chain: MTQTVNEREDPLNLGGGGWASSIPLRTWSSYHRRQRGAPVSKRRYRDGPKIEYEASRKQPKQQRSPGSWFQPSRGPYWALYSNWERCGGPWRPPLIAFQSPLCPAQMIRAYGLHPLCVCCCSCWSGPWNPGWERPPGRKKRWGRRGRGLRRHPRRSFPRNPPIDLSKMLRPVNLSGWRAPGMRAPRNTTQFIMNQVYEDMRQQEKLERQQAALRAQQAQEGGISPGDSTTNDAPHSGVEEDSQLPEDLYGFMQDPSLTFSPALMQHNQSPTPGLVEEEEKNVDDDECDVEVCDEKEESEEEEEEEVDRGSEDEDVDEEEVEAAGNGEEGEEDQEEEYMLEETGLEEGEQRAEEKFLPLGMPLSILVGDEEERENFMNYDYLSQEQIIPNVPEADLFMVPDISH
